Patent US12410152B2, “Oxazole and thioazole-type cullin ring ubiquitin ligase compounds and uses thereof” (Proxygen GmbH, priority 2019, dated 2025)
Further values from the same series stand in other lists.

Test system: KBM7 WT cells (global proteome)
Experiment: Quantitative expression proteomics (TMT isobaric tagging), drug vs DMSO
Type: cell-based, human
Description: The mechanism by which the assayed molecules re-program a functional CRL4B complex based on the data shown could be that drug binding to CUL4B recruits a neo-substrate directly to the cullin backbone. Alternatively, drug binding could stabilize CUL4B function to boost time intervals where a functionally competent CUL4B complexes can be formed. Here, the word “functional” implies that the CUL4B backbone of this complex needs to be neddylated, and a CUL4B associated E2 ubiquitin-conjugating enzyme (UBE2G1) needs to be bound. FIG. 9 outlines one possible mechanism. Both predicted mechanisms of action would result in a functionally altered CRL4B complex, and thus an altered stability of drug-induced (neo-) substrates. In order to identify target proteins with a decreased abundance or, in other words, target proteins that become degraded by CRL4B after drug treatment, global proteome composition was measured using quantitative expression proteomics (TMT-labeling). In brief, KBM7 cells were drug treated for 12 hours, lysed, and subjected to isobaric tagging. Ensuing proteomics analysis quantified a total of 7,903 proteins at a minimum spectral count of 2. […] Data on essentiality are taken from Hart et al., G3, August 2017 (PMID: 28655737).
50×10^6 KBM7^WT cells per condition were collected, washed four times with ice-cold PBS, the supernatant aspirated and pellets snap-frozen in liquid N2. Each washed cell pellet was lysed separately in 40 μL of freshly prepared lysis buffer as previously described (see Mayor-Ruiz et al., Mol Cell 2019)
Offline Fractionation via RP-HPLC at high pH and 2D-RP/RP Liquid Chromatography Mass Spectrometry were performed as previously described (see Mayor-Ruiz et al., Mol Cell 2019).
Acquired raw data files were processed using the Proteome Discoverer 2.2.0 platform, utilizing the Sequest HT database search engine and Percolator validation software node (V3.04) to remove false positives with a false discovery rate (FDR) of 1% on peptide and protein level under strict conditions. Searches were performed with full tryptic digestion against the human SwissProt database v2017.06 with up to two allowed miscleavage sites. Oxidation (+15.9949 Da) of methionine was set as variable modification, whilst carbamidomethylation (+57.0214 Da) of cysteine residues and TMT 6-plex labelling of peptide N-termini and lysine residues were set as fixed modifications. Data was searched with mass tolerances of ±10 ppm and ±0.02 Da on the precursor and fragment ions, respectively. Results were filtered to include peptide spectrum matches (PSMs) with Sequest HT cross-correlation factor (Xcorr) scores of […] and high peptide confidence assigned by Percolator. MS^2 signal-to-noise values (S/N) values of TMT reporter ions were used to estimate peptide/protein abundance changes. PSMs with precursor isolation interference values of ≥ 50% and average TMT-reporter ion S/N≤10 were excluded from quantitation. Only unique peptides were used for TMT quantitation as well as for TOP3 label-free quantitation. Isotopic impurity correction and TMT channel-normalization based on total peptide amount were applied. For statistical analysis and p-value calculation, the integrated ANOVA hypothesis test was used. TMT ratios with p-values below 0.01 were considered as significant. Only proteins with >1 peptide detected and >1 unique peptide detected were considered for further analysis. For the calling of destabilized proteins, a log 2 fold change threshold (drug/DMSO) of −0.3 was applied.
Comparison of overall proteome-wide changes in KBM7 cells treated with IC020772.1 (2.5 μM), IC021313.2 (7 μM) or T6938051 (3.5 μM) for 5 h and 12h, using quantitative proteomics based on isobaric tagging.
The protein names in Table 4, Table 5 and Table 6 refer to the protein names as provided by HUGO Gene Nomenclature Committee (HGNC) database. […]

With `O=C(CSc1nnc2c(n1)[nH]c1ccccc12)Nc1ccc(Cl)cn1` [IC020772.1] the “log2FC (IC020772.1/DMSO)” value (ABHD15 (Q6UXT9)) was −0.3364, the “log2FC (IC020772.1/DMSO)” value (ACTR3B (Q9P1U1-1)) was −0.3201 and the “log2FC (IC020772.1/DMSO)” value (ACTR8 (Q9H981-1)) was −0.364. The “log2FC (IC020772.1/DMSO)” value (ADAM22 (Q9P0K1-1)) was −0.3715, the “log2FC (IC020772.1/DMSO)” value (AGGF1 (Q8N302-1)) was −0.662 and the “log2FC (IC020772.1/DMSO)” value (AKIRIN2 (Q53H80)) was −1.466. For the same compound, the “log2FC (IC020772.1/DMSO)” value (ALKBH1 (Q13686)) was −0.4422, the “log2FC (IC020772.1/DMSO)” value (AMD1 (P17707-1)) was −0.8211 and the “log2FC (IC020772.1/DMSO)” value (ANKRD12 (Q6UB98-1)) was −0.3364. The “log2FC (IC020772.1/DMSO)” value (ANKRD40 (Q6AI12)) was −0.4403, the “log2FC (IC020772.1/DMSO)” value (ANKS3 (Q6ZW76-1)) was −0.4442 and the “log2FC (IC020772.1/DMSO)” value (AP5B1 (Q2VPB7)) was −0.3401. The “log2FC (IC020772.1/DMSO)” value (APPBP2 (Q92624)) was −1.165, the “log2FC (IC020772.1/DMSO)” value (ARL11 (Q969Q4)) was −0.6804 and the “log2FC (IC020772.1/DMSO)” value (ARL13B (Q3SXY8-1)) was −0.6781. For the same compound, the “log2FC (IC020772.1/DMSO)” value (ARVCF (O00192-1)) was −0.6712, the “log2FC (IC020772.1/DMSO)” value (ATAD2 (Q6PL18-1)) was −0.4461 and the “log2FC (IC020772.1/DMSO)” value (ATF6B (Q99941-1)) was −0.699. The “log2FC (IC020772.1/DMSO)” value (ATF7 (P17544-6)) was −0.9434, the “log2FC (IC020772.1/DMSO)” value (BAIAP2 (Q9UQB8-1)) was −0.4093 and the “log2FC (IC020772.1/DMSO)” value (BCL7A (Q4VC05-1)) was −0.3346. For the same compound, the “log2FC (IC020772.1/DMSO)” value (BIN3 (Q9NQY0-1)) was −0.4016, the “log2FC (IC020772.1/DMSO)” value (BORA (Q6PGQ7-1)) was −0.8468 and the “log2FC (IC020772.1/DMSO)” value (BRCA1 (P38398-7)) was −0.4383. For the same compound, the “log2FC (IC020772.1/DMSO)” value (BUB1 (O43683-1)) was −0.8916, the “log2FC (IC020772.1/DMSO)” value (BUB1B (O60566-3)) was −0.7084 and the “log2FC (IC020772.1/DMSO)” value (C2CD3 (Q4AC94-5)) was −0.4461. The “log2FC (IC020772.1/DMSO)” value (C5orf51 (A6NDU8)) was −0.4055, the “log2FC (IC020772.1/DMSO)” value (C9orf40 (Q8IXQ3)) was −0.6643 and the “log2FC (IC020772.1/DMSO)” value (CALCOCO2 (Q13137-4)) was −0.8186. For the same compound, the “log2FC (IC020772.1/DMSO)” value (CCDC14 (Q49A88-1)) was −0.3978, the “log2FC (IC020772.1/DMSO)” value (CD37 (P11049-1)) was −0.3383 and the “log2FC (IC020772.1/DMSO)” value (CD55 (P08174-7)) was −0.3437. The “log2FC (IC020772.1/DMSO)” value (CD99L2 (Q8TCZ2-1)) was −0.3715, the “log2FC (IC020772.1/DMSO)” value (CD151 (P48509)) was −0.48 and the “log2FC (IC020772.1/DMSO)” value (CDC123 (O75794)) was −0.8314. For the same compound, the “log2FC (IC020772.1/DMSO)” value (CDCA7L (Q96GN5-1)) was −0.4131, the “log2FC (IC020772.1/DMSO)” value (CDK5RAP2 (Q96SN8-1)) was −0.4521 and the “log2FC (IC020772.1/DMSO)” value (CEBPA (P49715-4)) was −0.3978. The “log2FC (IC020772.1/DMSO)” value (CEP44 (Q9C0F1-2)) was −0.364, the “log2FC (IC020772.1/DMSO)” value (CEP55 (Q53EZ4-1)) was −0.6735 and the “log2FC (IC020772.1/DMSO)” value (CEP76 (Q8TAP6-1)) was −0.3401. For the same compound, the “log2FC (IC020772.1/DMSO)” value (CETN3 (O15182)) was −0.6735, the “log2FC (IC020772.1/DMSO)” value (CFAP97 (Q9P2B7-1)) was −1.168 and the “log2FC (IC020772.1/DMSO)” value (CHAC2 (Q8WUX2)) was −0.3659. The “log2FC (IC020772.1/DMSO)” value (CHAF1A (Q13111-1)) was −0.4131, the “log2FC (IC020772.1/DMSO)” value (CHKA (P35790-1)) was −0.4521 and the “log2FC (IC020772.1/DMSO)” value (CHRDL1 (Q9BU40-4)) was −0.8186. The “log2FC (IC020772.1/DMSO)” value (CHST11 (Q9NPF2-1)) was −0.4481, the “log2FC (IC020772.1/DMSO)” value (CHTOP (Q9Y3Y2-3)) was −0.6897 and the “log2FC (IC020772.1/DMSO)” value (CHURC1 (Q8WUH1-1)) was −0.6666. For the same compound, the “log2FC (IC020772.1/DMSO)” value (CLSPN (Q9HAW4-1)) was −0.7131, the “log2FC (IC020772.1/DMSO)” value (CLTA (P09496-2)) was −0.3733 and the “log2FC (IC020772.1/DMSO)” value (CMIP (Q8IY22-1)) was −0.3346. For the same compound, the “log2FC (IC020772.1/DMSO)” value (CNKSR2 (Q8WXI2-1)) was −0.8009, the “log2FC (IC020772.1/DMSO)” value (CNOT2 (Q9NZN8-1)) was −0.4383 and the “log2FC (IC020772.1/DMSO)” value (COA5 (Q86WW8)) was −0.9187. The “log2FC (IC020772.1/DMSO)” value (COA7 (Q96BR5)) was −0.4093, the “log2FC (IC020772.1/DMSO)” value (COX19 (Q49B96)) was −0.3733 and the “log2FC (IC020772.1/DMSO)” value (CREB1 (P16220-1)) was −0.3677. For the same compound, the “log2FC (IC020772.1/DMSO)” value (CRIPT (Q9P021)) was −0.963, the “log2FC (IC020772.1/DMSO)” value (CRY2 (Q49AN0-1)) was −0.3997 and the “log2FC (IC020772.1/DMSO)” value (CTNNBIP1 (Q9NSA3)) was −0.4442. The “log2FC (IC020772.1/DMSO)” value (CXorf38 (Q8TB03-1)) was −0.3346, the “log2FC (IC020772.1/DMSO)” value (CXorf56 (Q9H5V9-1)) was −0.3401 and the “log2FC (IC020772.1/DMSO)” value (DAPK1 (P53355-3)) was −0.3959. For the same compound, the “log2FC (IC020772.1/DMSO)” value (DCAF1 (Q9Y4B6-1)) was −0.4112, the “log2FC (IC020772.1/DMSO)” value (DCAF12 (Q5T6F0)) was −0.881 and the “log2FC (IC020772.1/DMSO)” value (DCLREIA (Q6PJP8)) was −0.3383. The “log2FC (IC020772.1/DMSO)” value (DEAFI (O75398-1)) was −0.4383, the “log2FC (IC020772.1/DMSO)” value (DHDDS (Q86SQ9-2)) was −0.3419 and the “log2FC (IC020772.1/DMSO)” value (DHRS2 (Q13268-2)) was −0.3696. For the same compound, the “log2FC (IC020772.1/DMSO)” value (DHX32 (Q7L7V1-1)) was −0.48, the “log2FC (IC020772.1/DMSO)” value (DIXDC1 (Q155Q3-1)) was −0.9024 and the “log2FC (IC020772.1/DMSO)” value (DMAC2 (Q9NW81-4)) was −0.4016. For the same compound, the “log2FC (IC020772.1/DMSO)” value (DNAJC25 (Q9H1X3-1)) was −0.4055, the “log2FC (IC020772.1/DMSO)” value (DOPEYI (Q5JWR5)) was −0.3419 and the “log2FC (IC020772.1/DMSO)” value (E2F3 (O00716-1)) was −0.6873. The “log2FC (IC020772.1/DMSO)” value (EAPP (Q56P03)) was −0.3978, the “log2FC (IC020772.1/DMSO)” value (EEF1E1 (O43324-1)) was −0.3997 and the “log2FC (IC020772.1/DMSO)” value (EEF2K (O00418)) was −0.4016. The “log2FC (IC020772.1/DMSO)” value (EIF4H (Q15056-1)) was −0.3383, the “log2FC (IC020772.1/DMSO)” value (ELF4 (Q99607)) was −0.6827 and the “log2FC (IC020772.1/DMSO)” value (ENDOG (Q14249)) was −0.4779. The “log2FC (IC020772.1/DMSO)” value (ESCO2 (Q56NI9-1)) was −0.9051, the “log2FC (IC020772.1/DMSO)” value (FADD (Q13158)) was −0.4521 and the “log2FC (IC020772.1/DMSO)” value (FADS2 (O95864-1)) was −1.582. For the same compound, the “log2FC (IC020772.1/DMSO)” value (FAM53B (Q14153-1)) was −0.3201, the “log2FC (IC020772.1/DMSO)” value (FAM92A (A1XBS5-1)) was −0.9159 and the “log2FC (IC020772.1/DMSO)” value (FAM124B (Q9H5Z6-1)) was −0.4461. The “log2FC (IC020772.1/DMSO)” value (FAM136A (Q96C01)) was −0.4131.
